Experimental data taken from paper PMC7078472.
No constants are given. Whether binding was seen depends on the method and setting. Binding seen in cells or lysates may run through a third protein. Some entries that bind do so weakly or less than the wild type.

Amino acid sequences for entries named in this document (tags omitted). Residues count along the entry.
UniProt Q8NE86, residues 51-351: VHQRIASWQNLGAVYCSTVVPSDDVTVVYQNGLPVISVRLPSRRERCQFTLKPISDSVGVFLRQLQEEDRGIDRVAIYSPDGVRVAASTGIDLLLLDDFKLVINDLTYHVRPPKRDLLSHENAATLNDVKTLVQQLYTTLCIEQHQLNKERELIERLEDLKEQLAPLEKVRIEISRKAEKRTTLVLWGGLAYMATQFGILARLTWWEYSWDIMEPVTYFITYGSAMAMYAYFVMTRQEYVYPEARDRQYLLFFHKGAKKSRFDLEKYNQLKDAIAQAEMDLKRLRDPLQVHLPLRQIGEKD
UniProt P05496, residues 62-136: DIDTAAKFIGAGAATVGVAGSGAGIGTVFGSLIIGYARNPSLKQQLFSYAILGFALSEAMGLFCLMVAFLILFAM

What was measured:
[1] = biological target: human MCU (HsMCU), endogenous (human (endogenous in HEK-293T and HeLa)) (UniProt Q8NE86); assay: co-IP; lysates of WT HEK-293T and HeLa cells (HEK-293T MCU-KO as negative control), native conditions, reciprocal IP with anti-HsMCU or anti-HsATPc, blots for HsMCU, HsATPc and HsHsp70
[2] = biological target: human ATP synthase subunit c (HsATPc), endogenous (human (endogenous in HEK-293T and HeLa)) (UniProt P05496); assay: as above

binding [1] | binding [2] | Substance
binds |  | human ATP synthase subunit c (HsATPc), endogenous (from UniProt P05496 62-136)
 | binds | human MCU (HsMCU), endogenous (from UniProt Q8NE86 51-351)
